Source: article PMC4605305

Amino acid sequences for entries named in this document (tags omitted). A change or cut given only in a name is not applied to a line headed by its entry. Residues count along the entry.
UniProt P23246, 266-365: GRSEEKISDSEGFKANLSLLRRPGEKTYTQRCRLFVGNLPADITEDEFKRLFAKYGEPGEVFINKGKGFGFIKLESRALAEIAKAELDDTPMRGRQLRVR
UniProt P23246, 266-484: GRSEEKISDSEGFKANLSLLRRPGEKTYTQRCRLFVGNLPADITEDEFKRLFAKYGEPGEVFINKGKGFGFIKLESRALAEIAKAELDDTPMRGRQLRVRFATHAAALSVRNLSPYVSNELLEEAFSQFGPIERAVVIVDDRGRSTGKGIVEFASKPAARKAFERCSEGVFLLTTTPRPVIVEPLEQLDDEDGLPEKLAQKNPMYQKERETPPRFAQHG
UniProt P23246, 299-449: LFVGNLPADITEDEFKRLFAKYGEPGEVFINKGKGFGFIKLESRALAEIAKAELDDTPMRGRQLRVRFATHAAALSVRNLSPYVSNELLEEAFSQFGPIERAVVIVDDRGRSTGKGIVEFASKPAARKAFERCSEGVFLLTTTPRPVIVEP
UniProt P14866: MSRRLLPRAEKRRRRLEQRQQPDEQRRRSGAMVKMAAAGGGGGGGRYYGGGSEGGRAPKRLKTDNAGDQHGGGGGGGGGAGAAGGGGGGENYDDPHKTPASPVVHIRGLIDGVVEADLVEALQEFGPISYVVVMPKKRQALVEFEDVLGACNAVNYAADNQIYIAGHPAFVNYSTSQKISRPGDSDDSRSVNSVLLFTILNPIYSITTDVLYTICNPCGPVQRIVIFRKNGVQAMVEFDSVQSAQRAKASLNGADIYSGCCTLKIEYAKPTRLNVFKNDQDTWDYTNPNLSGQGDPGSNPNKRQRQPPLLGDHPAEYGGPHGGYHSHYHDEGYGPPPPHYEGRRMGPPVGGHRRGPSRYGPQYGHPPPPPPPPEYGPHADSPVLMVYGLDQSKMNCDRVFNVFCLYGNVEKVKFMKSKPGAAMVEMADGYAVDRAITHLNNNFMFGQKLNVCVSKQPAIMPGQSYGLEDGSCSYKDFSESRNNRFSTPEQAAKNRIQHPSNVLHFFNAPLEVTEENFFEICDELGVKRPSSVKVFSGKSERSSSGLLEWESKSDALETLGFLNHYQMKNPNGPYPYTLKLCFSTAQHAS

Assays:
[1] = target: PSF exRRM1 (human) (UniProt P23246); assay: EMSA; conditions: little ability to bind; EMSA: similar plus RNasin, 1 mM DTT, 10 mM KCl, then 0.5 ug/ul heparin. Fig S3 prints seven relative Kd values (1.8, 1.3, 3.2, 1.4, 1.2, 1.3); recombinant protein; residues 266-365; protein details: 6xHis-FLAG N-term; label: uniform 32P
[2] = target: PSF exRRMs (human) (UniProt P23246); assay: UV crosslinking; conditions: lower affinity than full-length PSF; UV crosslinking: 12 mM Tris pH 7.5, 120 mM NaCl, 3 mM MgCl2, 1 mM ATP, 20 mM phosphocreatine, 0.1 mM EDTA, 12% glycerol, 1.3% PVA, 25 ng/ul yeast tRNA, 20 ng/ul BSA; recombinant protein; residues 266-484; protein details: 6xHis-FLAG N-term; label: uniform 32P
[3] = target: PSF minRRMs (human) (UniProt P23246); assay: UV crosslinking; conditions: UV crosslinking: 12 mM Tris pH 7.5, 120 mM NaCl, 3 mM MgCl2, 1 mM ATP, 20 mM phosphocreatine, 0.1 mM EDTA, 12% glycerol, 1.3% PVA, 25 ng/ul yeast tRNA, 20 ng/ul BSA; recombinant protein; residues 299-449; protein details: 6xHis-FLAG N-term; label: uniform 32P
[4] = target: hnRNP L (UniProt P14866); assay: UV crosslinking; conditions: UV crosslinking: 12 mM Tris pH 7.5, 120 mM NaCl, 3 mM MgCl2, 1 mM ATP, 20 mM phosphocreatine, 0.1 mM EDTA, 12% glycerol, 1.3% PVA, 25 ng/ul yeast tRNA, 20 ng/ul BSA; recombinant protein; protein details: 6xHis; label: uniform 32P
[5] = target: PSF exRRMs (human) (UniProt P23246); assay: UV crosslinking competition; conditions: EMSA: similar plus RNasin, 1 mM DTT, 10 mM KCl, then 0.5 ug/ul heparin. Fig S3 prints seven relative Kd values (1.8, 1.3, 3.2, 1.4, 1.2, 1.3), recombinant protein, residues 266-484, protein details: 6xHis-FLAG N-term, label: uniform 32P
[6] = target: PSF full-length (PSF-FL) (human) (UniProt P23246); assay: UV crosslinking competition; conditions: FLAG-TRAP150 full-length, near complete inhibition at equimolar; EMSA: similar plus RNasin, 1 mM DTT, 10 mM KCl, then 0.5 ug/ul heparin. Fig S3 prints seven relative Kd values (1.8, 1.3, 3.2, 1.4, 1.2, 1.3); recombinant protein; residues 1-707; protein details: 6xHis-FLAG N-term; label: uniform 32P

ACGCGUCCACUUUCAAGUGACCCCUUACCUACUCACACCACUGCAUUCUCACCCGCAAGCACCUUUGACGCGU [ESS1]
binding result [1]: binds more weakly
binding result [2]: binds more weakly
binding result [3]: binds
binding result [4]: binds
binding result ([5]; GST-TRAP150 266-755, near complete inhibition at equimolar): binds more weakly
binding result ([5]; GST-TRAP150 PID (686-755), near complete inhibition at equimolar): binds more weakly
binding result ([5]; GST-TRAP150 deltaN (266-955), near complete inhibition at equimolar): binds more weakly
binding result [6]: binds more weakly

For some assays here: The comparison behind a weaker result is the experiment's own reference, which may not be listed here. For some assays here: Construct, isoform or probe ends are uncertain for at least one entry. For some assays here: At least one verdict rests on a figure or table, not on a statement of the authors.
